{"sequences": {"note": "Protein sequences, listed by entry. Tags and fused reporters are not part of them. Lines headed by an entry give the natural chain unless they say otherwise; changes in a name come on top.", "UniProt P08432": "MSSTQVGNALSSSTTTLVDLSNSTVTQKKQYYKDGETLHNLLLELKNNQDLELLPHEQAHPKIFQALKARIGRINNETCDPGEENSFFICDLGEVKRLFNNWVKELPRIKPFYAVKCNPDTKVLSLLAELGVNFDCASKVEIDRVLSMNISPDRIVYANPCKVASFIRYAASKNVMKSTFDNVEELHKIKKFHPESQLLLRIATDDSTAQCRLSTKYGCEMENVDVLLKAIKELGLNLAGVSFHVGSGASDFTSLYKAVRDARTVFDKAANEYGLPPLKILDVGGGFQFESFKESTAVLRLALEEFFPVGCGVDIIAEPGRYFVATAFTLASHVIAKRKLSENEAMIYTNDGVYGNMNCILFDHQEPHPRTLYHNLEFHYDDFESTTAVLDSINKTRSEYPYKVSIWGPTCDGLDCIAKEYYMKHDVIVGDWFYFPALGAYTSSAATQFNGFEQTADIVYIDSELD"}, "source": "paper PMC3124589", "about": "(Biochimica et biophysica acta, 2011)", "key": {"S. cerevisiae ODC [1]": {"molecular_target": "T1, S. cerevisiae ODC (Saccharomyces cerevisiae, UniProt P08432)", "test": "biochemical"}, "S. cerevisiae ODC [2]": {"molecular_target": "T1, S. cerevisiae ODC", "details": "CO2 Assay; 50 nM enzyme; errors in parentheses"}}, "data": [{"smiles": "NCCC[C@@H](N)C(=O)O", "note": "[D-ornithine]", "values": [{"measurement": "Ki", "setting": "S. cerevisiae ODC [1]", "value": "380 ± 67", "unit": "µM"}]}, {"smiles": "NCCC[C@H](N)C(=O)O", "note": "[L-ornithine]", "values": [{"measurement": "Km", "setting": "S. cerevisiae ODC [2]", "value": 122, "unit": "µM"}, {"measurement": "kcat", "setting": "S. cerevisiae ODC [2]", "value": "3.3 (0.2) s^−1"}]}]}
